These are yes or no findings as the source states them, for the method shown.

Protein sequences, listed by entry. Tags and fused reporters are not part of them. Lines headed by an entry give the natural chain unless they say otherwise; changes in a name come on top.
UniProt Q13641: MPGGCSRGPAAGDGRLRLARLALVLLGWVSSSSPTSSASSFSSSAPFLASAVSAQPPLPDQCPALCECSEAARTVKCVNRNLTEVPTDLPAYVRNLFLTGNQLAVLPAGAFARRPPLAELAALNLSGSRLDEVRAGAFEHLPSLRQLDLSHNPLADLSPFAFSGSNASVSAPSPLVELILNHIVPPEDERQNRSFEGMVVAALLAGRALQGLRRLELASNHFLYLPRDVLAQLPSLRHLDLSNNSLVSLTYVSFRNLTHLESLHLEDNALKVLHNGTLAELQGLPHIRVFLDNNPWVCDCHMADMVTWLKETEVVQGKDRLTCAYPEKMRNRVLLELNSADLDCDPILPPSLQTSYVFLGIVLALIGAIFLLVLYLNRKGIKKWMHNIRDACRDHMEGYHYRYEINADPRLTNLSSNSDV
UniProt Q4R8Y9: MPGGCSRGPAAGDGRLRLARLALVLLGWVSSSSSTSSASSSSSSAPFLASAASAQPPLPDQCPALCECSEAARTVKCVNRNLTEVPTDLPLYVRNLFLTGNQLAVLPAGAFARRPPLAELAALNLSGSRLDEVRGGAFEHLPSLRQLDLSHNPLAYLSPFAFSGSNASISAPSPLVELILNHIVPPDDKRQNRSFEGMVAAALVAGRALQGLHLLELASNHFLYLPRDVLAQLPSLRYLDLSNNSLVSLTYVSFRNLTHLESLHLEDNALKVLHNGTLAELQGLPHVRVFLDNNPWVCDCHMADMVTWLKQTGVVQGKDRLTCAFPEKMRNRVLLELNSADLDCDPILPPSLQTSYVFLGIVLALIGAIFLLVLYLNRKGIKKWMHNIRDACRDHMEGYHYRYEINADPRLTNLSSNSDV

The values that follow come from patent US20230257479A1.

The target in assay [1] is full length human 5T4 (SEQ ID NO: 1) on cells (human) (UniProt Q13641). Briefly: flow cytometry, HEK-293 cells transfected with human 5T4, FITC secondary [I)A].
Assay [2] shares this target. Briefly: flow cytometry, HeLa cells, FITC secondary [I)C].
Assay [3] shares this target. Briefly: flow cytometry, MDA-MB-231 cells, FITC secondary [I)A].
Assay [4] shares this target. Briefly: flow cytometry, HEK-293 cells transfected with human 5T4, FITC secondary [I)B].
Assay [5] has the same target. Briefly: flow cytometry, HEK-293 cells transfected with human 5T4, PE secondary.
For assay [6], the target named is full length cynomolgus monkey 5T4 on transfected HEK-293 cells (cynomolgus monkey) (UniProt Q4R8Y9). Briefly: flow cytometry, HEK-293 cells transfected with cynomolgus monkey 5T4, FITC secondary [I)B].
Assay [7] concerns the target T1, full length chicken 5T4 (SEQ ID NO: 3) on transfected HEK-293 cells (chicken).
T1 sequence: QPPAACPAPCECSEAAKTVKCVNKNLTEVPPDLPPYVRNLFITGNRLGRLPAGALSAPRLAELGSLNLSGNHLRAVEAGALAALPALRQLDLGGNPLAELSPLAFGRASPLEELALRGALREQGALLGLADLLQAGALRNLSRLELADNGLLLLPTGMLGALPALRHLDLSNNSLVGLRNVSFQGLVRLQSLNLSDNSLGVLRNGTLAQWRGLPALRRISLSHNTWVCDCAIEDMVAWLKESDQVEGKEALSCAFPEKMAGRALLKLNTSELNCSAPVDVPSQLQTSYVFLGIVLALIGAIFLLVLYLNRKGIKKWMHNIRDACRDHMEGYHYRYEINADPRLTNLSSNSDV
Briefly: flow cytometry, transfected HEK-293 cells.

Assay [8] deals with full length human 5T4 (SEQ ID NO: 1) on cells (human) (UniProt Q13641). Briefly: flow cytometry, transfected HEK-293 cells.
Assay [9] shares this target. Briefly: flow cytometry, HeLa cells, FITC secondary [I)B].
For assay [10] the target is unchanged. Briefly: flow cytometry, HeLa and MDA-MB-231 cells.
For assay [11] the target is unchanged. Briefly: flow cytometry, HEK-293 cells transfected with human 5T4, FITC secondary [I)D].
The target in assay [12] is full length cynomolgus monkey 5T4 on transfected HEK-293 cells (cynomolgus monkey) (UniProt Q4R8Y9). Briefly: flow cytometry, HEK-293 cells transfected with cynomolgus monkey 5T4, FITC secondary [I)A].
Assay [13] has the same target. Briefly: flow cytometry, HEK-293 cells transfected with cynomolgus monkey 5T4, FITC secondary [I)D].
Assay [14] has as its target full length human 5T4 (SEQ ID NO: 1) on cells (human) (UniProt Q13641). Briefly: flow cytometry, HeLa cells, FITC secondary [I)A].
Assay [15] has the same target. Briefly: flow cytometry, HEK-293 cells transfected with human 5T4, FITC secondary [I)C].
Assay [16] shares this target. Briefly: flow cytometry, transfected HEK-293 cells. The source holds these as a separate data set.
Assay [17] has as its target full length cynomolgus monkey 5T4 on transfected HEK-293 cells (cynomolgus monkey) (UniProt Q4R8Y9). Briefly: flow cytometry, transfected HEK-293 cells.
In assay [18] the target is full length human 5T4 (SEQ ID NO: 1) on cells (human) (UniProt Q13641). Briefly: flow cytometry, MDA-MB-231 cells, FITC secondary [I)C].
Assay [19] addresses full length cynomolgus monkey 5T4 on transfected HEK-293 cells (cynomolgus monkey) (UniProt Q4R8Y9). Briefly: flow cytometry, HEK-293 cells transfected with cynomolgus monkey 5T4, FITC secondary [I)C].
In assay [20] the target is T1, full length chicken 5T4 (SEQ ID NO: 3) on transfected HEK-293 cells (chicken). Briefly: flow cytometry, HEK-293 cells transfected with chicken 5T4, PE secondary.
Assay [21] concerns the target full length human 5T4 (SEQ ID NO: 1) on cells (human) (UniProt Q13641). Briefly: flow cytometry, MDA-MB-231 cells, FITC secondary [I)B].

B1: IgG1-b12-K409R (antibody, V domains shown)
VH: QVQLVQSGAEVKKPGASVKVSCQASGYRFSNFVIHWVRQAPGQRFEWMGWINPYNGNKEFSAKFQDRVTFTADTSANTAYMELRSLRSADTAVYYCARVGPYSWDDSPQDNYYMDVWGKGTTVIVSS
VL: EIVLTQSPGTLSLSPGERATFSCRSSHSIRSRRVAWYQHKPGQAPRLVIHGVSNRASGISDRFSGSGSGTDFTLTITRVEPEDFALYYCQVYGASSYTFGQGTKLERK
B1: the binding result in assay [1] was “no binding (tested: 3 µg/ml)”; in assay [2], “no binding (tested: 3 µg/ml)”; in assay [3], “no binding (tested: 3 µg/ml)”; in assay [4], “no binding (tested: 3 µg/ml)”; in assay [5] it was “no binding (tested: 10 µg/ml)”; in assay [6], “no binding (tested: 3 µg/ml)”. In addition, the binding result in assay [7] is “no binding (tested: 10 µg/mL)”; in assay [8] it was “no binding (tested: 10 µg/mL)”; in assay [9] it was “no binding (tested: 3 µg/ml)”; in [10], “no binding (tested: 3 µg/mL)”; in assay [11] it was “no binding (tested: 3 µg/ml)”; in assay [12] it was “no binding (tested: 3 µg/ml)”. For the same molecule, the binding result in assay [13] is given as “no binding (tested: 3 µg/ml)”; in assay [14], “no binding (tested: 3 µg/ml)”; in assay [15], “no binding (tested: 3 µg/ml)”; in [16], “no binding (tested: 3 µg/mL)”; in [17], “no binding (tested: 3 µg/mL)”; in assay [18], “no binding (tested: 3 µg/ml)”. The results for the binding entry in [19], in assay [20] and in assay [21] were “no binding (tested: 3 µg/ml)”, “no binding (tested: 10 µg/ml)” and “no binding (tested: 3 µg/ml)”, respectively.
